Measurements: PubChem BioAssay AID1671190 (National Center for Advancing Translational Sciences (NCATS), 2021)
Among all 580,000 compounds or so, about 6,100 (1.1%) were called active. Inconclusive results, whose numbers are uncertain, are shown with a selection of clear calls. The call rests on the fitted dose curve; in most records, active means well fitted inhibition curve with a large enough effect; inconclusive means small, poorly fitted or top-dose-only effect, or another doubt; inactive means no such curve, though single readings can be large or run the other way. Potencies of inconclusive entries are doubtful fits and often do not repeat.

Chains of the proteins cited; added tags and fusions are not shown. Lines headed by an entry give the natural chain unless they say otherwise; changes in a name come on top.
UniProt P18054: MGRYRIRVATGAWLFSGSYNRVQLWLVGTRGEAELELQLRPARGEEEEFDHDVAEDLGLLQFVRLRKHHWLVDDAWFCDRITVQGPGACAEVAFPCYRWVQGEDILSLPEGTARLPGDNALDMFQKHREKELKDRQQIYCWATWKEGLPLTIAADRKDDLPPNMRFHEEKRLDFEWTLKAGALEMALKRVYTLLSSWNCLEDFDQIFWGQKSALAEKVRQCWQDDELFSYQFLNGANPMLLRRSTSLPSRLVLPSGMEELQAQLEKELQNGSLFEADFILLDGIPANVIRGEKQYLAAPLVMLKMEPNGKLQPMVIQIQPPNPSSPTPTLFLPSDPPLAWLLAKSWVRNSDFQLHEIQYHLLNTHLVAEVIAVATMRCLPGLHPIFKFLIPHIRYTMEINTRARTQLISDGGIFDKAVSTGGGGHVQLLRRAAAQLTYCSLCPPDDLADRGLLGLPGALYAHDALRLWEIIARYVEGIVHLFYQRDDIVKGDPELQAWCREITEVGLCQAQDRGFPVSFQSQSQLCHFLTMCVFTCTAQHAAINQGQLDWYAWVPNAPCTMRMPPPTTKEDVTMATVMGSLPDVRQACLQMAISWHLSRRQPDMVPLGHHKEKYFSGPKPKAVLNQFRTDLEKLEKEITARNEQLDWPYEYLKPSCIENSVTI

These compounds were tested against Polyunsaturated fatty acid lipoxygenase ALOX12 (Homo sapiens) (UniProt P18054) (assay: Primary qHTS assay for inhibitors of human arachidonate 12S-lipoxygenase (ALOX12): Round 2). Settings: purified 12hLO, xylenol orange hydroperoxide absorbance; activity change, negative = inhibition: at 108 µM (top of the series) unless noted.
In short: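 Hydroperoxide product was detected by ferrous iron/xylenol orange as the 573 to 405 nm absorbance ratio. Arachidonic acid at 40 uM (final) was turned over for 30 min at room temperature by 150 nM human 12hLO, pH 7.0 Hepes buffer, after 15 min compound preincubation.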
On the % scale 0 is the no-effect control and ±100 the full control effect; potency means the concentration at half of the fitted maximal effect.

Structure (SMILES) | Potency | activity change, negative = inhibition
CCCCCCC12Cc3cc(OC)c(OC)cc3C(O1)c1c(cc(C)oc1=O)O2 (stereo not drawn) | inconclusive: 50.1 µM [inhibitor, partial curve, poor fit] | –
Cc1ccccc1CNC(=O)c1cc(=O)[nH]c2ccccc12 | inconclusive: 50.1 µM [inhibitor, partial curve, poor fit] | –
CCC(=O)c1ccccc1OCCCCn1cncn1 | inconclusive: 3.16 µM [inhibitor, full curve, poor fit] | –
COC(=O)c1cccc(NC(=O)CC2Sc3ccccc3NC2=O)c1 (stereo not drawn) | inconclusive: 35.5 µM [inhibitor, single point] | –
COc1ccccc1-c1nc(NCCNC(C)=O)c2ccccc2n1 | inconclusive: 44.7 µM [inhibitor, partial curve] | –
N#Cc1cccc(S(=O)(=O)NCC(=O)O)c1 | inconclusive: 14.1 µM [inhibitor, partial curve, poor fit] | –
Cc1nc2c(c(-c3ccc(O)cc3)n1)CN(Cc1ccc(N(C)C)cc1)CCC2 | – | inactive: -3.74%
COCCN1C(=O)CS(=O)C12CCN(C(=O)Nc1ccc3c(c1)OCCO3)CC2 (stereo not drawn) | – | inactive: 15.6%
COc1ccc(-c2nc(CS(=O)(=O)CC(=O)NC3CCCCC3C)c(C)o2)cc1 (stereo not drawn) | – | inactive: -17.1%
CCc1ccc(C(=O)C(C)OC(=O)C2COc3ccccc3O2)cc1 (stereo not drawn) | inconclusive: 282 µM [inhibitor, partial curve, poor fit] | –
CNC(=O)COc1ccc(C(=O)c2ccc(F)cc2)cc1 | inconclusive: 158 µM [inhibitor, partial curve, poor fit] | –
Cc1cccc(Cn2c(NC3CCCCC3)nc3c2c(=O)[nH]c(=O)n3C)c1 | – | inactive: -25.3%
Cc1cc(C)[n+](C)n1CC(O)Cn1c2ccccc2c2ccccc21 (stereo not drawn) | inconclusive: 8.91 µM [inhibitor, partial curve, poor fit] | –
COc1ccccc1OCC(=O)NCC1CCCN(Cc2ccc(C3CCCC3)s2)C1 (stereo not drawn) | – | inactive: 2.09%
O=C(O)c1c(C(=O)O)c(-c2ccc(Cl)c(Cl)c2)n2c1CSC2 | inconclusive: 56.2 µM [inhibitor, partial curve, poor fit] | –
O=C(Nc1ccc(Cl)cn1)c1cc2c(s1)-c1ccccc1OC2 | – | inactive: -15.4%
CCn1nc(C)c(CCNC(=O)c2cccc(C3CCNC3)c2)c1C (stereo not drawn) | inconclusive: 11.2 µM [inhibitor, full curve, poor fit] | –
CC(NC(=O)c1ccc2c(c1)NC(=O)CS2)c1ccc2c(c1)CC(=O)N2 (stereo not drawn) | inconclusive: 158 µM [inhibitor, partial curve, poor fit] | –
COc1ccc(N2CCN(C(=O)CCc3ccnc(N4CCOCC4)c3)CC2)cc1 | inconclusive: 100 µM [inhibitor, single point] | –
Cc1cc(Br)ccc1NC(=O)Cn1nc(C(N)=O)c2ccccc2c1=O | inconclusive: 79.4 µM [inhibitor, partial curve, poor fit] | –
Cc1cc(NC(C)C2CC3CCC2C3)n2ncnc2n1 (stereo not drawn) | inconclusive: 89.1 µM [inhibitor, single point] | –
CCCCCCCCCCC(=O)Nc1c(CC)cccc1CC | – | inactive: 9.77%
Cc1ccc(-c2csc3nc4c5ccccc5c(NCCCN(C)C)nn4c(=O)c23)cc1 | inconclusive: 50.1 µM [inhibitor, partial curve, poor fit] | –

Structure (SMILES) | Potency | activity change, negative = inhibition
O=C(Nc1nc2ccccc2[nH]1)Nc1ccccc1F | – | inactive: -13.2%
COc1ccc(CN2Cc3cc(NC(=O)c4ccccc4OC)ccc3OCC2=O)c(OC)c1 | inconclusive: 25.1 µM [inhibitor, full curve] | –
CC(Sc1cccc2cccnc12)C(=O)NC(=O)NC(C)(C)C (stereo not drawn) | active: 12.6 µM | –
CN1c2cc(C(=O)NCc3ccc(F)cc3F)ccc2C(=O)N2CCCCC21 (stereo not drawn) | – | inactive: 37.5%
COc1ccc(-n2c(C)c(C(C)=O)c3cc(OC(=O)COc4ccccc4)ccc32)cc1 | – | inactive: -19.7%
O=C(O)CCC(NC(=O)C1(c2ccccc2)CCCC1)C(=O)O (stereo not drawn) | inconclusive: 79.4 µM [inhibitor, single point] | –
CCOC(=O)c1sc(NC(=O)CSc2nc(C)cc(C(F)(F)F)n2)c(C#N)c1C | active: 20 µM | –
COc1ccc(C2=CC(=O)N(CCN)C2)cc1 | inconclusive: 89.1 µM [inhibitor, single point] | –
O=C(NCc1ccco1)c1csc(Nc2ccccc2Cl)n1 | inconclusive: 44.7 µM [inhibitor, partial curve] | –
CN(C)c1cccc(Oc2nnnn2[C@H]2CO[C@H]3[C@@H]2OC[C@@H]3NC(=O)Nc2cccc3ccccc23)c1 | – | inactive: -0.492%
Cc1cc(-c2ccc(C)c(S(=O)(=O)NCc3cccc(Br)c3)c2)on1 | inconclusive: 89.1 µM [inhibitor, partial curve, poor fit] | –
O=C1NN(c2ccccc2)C(=O)C1=Cc1ccccc1 | inconclusive: 31.6 µM [inhibitor, partial curve] | –
Cc1csc(NC(=O)NC2(C(F)(F)F)Oc3ccccc3O2)n1 | inconclusive: 79.4 µM [inhibitor, partial curve, poor fit] | –
Cc1ccc2c(c1)C(=O)C(=O)N2CCOc1ccccc1C | inconclusive: 79.4 µM [inhibitor, partial curve, poor fit] | –
Nc1cnc(CNc2ccccc2Cl)cn1 | inconclusive: 50.1 µM [inhibitor, partial curve, poor fit] | –
Fc1ccc(-c2nn(-c3ccccc3Cl)c3c2cnc2ccccc23)cc1 | inconclusive: 50.1 µM [inhibitor, partial curve, poor fit] | –
CCCCC1(C)OC(=O)C(=Cc2ccc(N(C)C)cc2)C(=O)O1 (stereo not drawn) | inconclusive: 2.24 µM [inhibitor, full curve, poor fit] | –
CCOC(=O)c1c(N)sc2c1CCC1C(=O)N(C3CCCCC3)C(=O)C21 (stereo not drawn) | inconclusive: 35.5 µM [inhibitor, partial curve, poor fit] | –
COc1ccccc1NC(=O)Nc1ccnn1C1CCN(C(=O)c2cscn2)CC1 | – | inactive: 0.826%
OCC1(CCOc2ccccc2)CCN(Cc2ccc3c(c2)OCCO3)CC1 | – | inactive: 4.08%
COC(=O)c1ccc(-c2csc(NC(=O)c3cc(=O)c4ccccc4o3)n2)cc1 | inconclusive: 56.2 µM [inhibitor, partial curve, poor fit] | –
O=C1/C(=C/C=C/c2ccccc2)Oc2c1ccc(O)c2CN1CCN(CCO)CC1 | inconclusive: 35.5 µM [inhibitor, partial curve, poor fit] | –
COc1cc(NC(=O)CCn2ccnc2)cc(OC)c1OC | – | inactive: 9.09%

A second format for some results above:

| Structure (SMILES) | Potency | activity change, negative = inhibition |
| --- | --- | --- |
| COCCN1C(=O)CS(=O)C12CCN(C(=O)Nc1ccc3c(c1)OCCO3)CC2 (stereo not drawn) | – | inactive: 15.6% |
| CNC(=O)COc1ccc(C(=O)c2ccc(F)cc2)cc1 | inconclusive: 158 µM [inhibitor, partial curve, poor fit] | – |
| COc1ccccc1OCC(=O)NCC1CCCN(Cc2ccc(C3CCCC3)s2)C1 (stereo not drawn) | – | inactive: 2.09% |
| O=C(NCc1ccco1)c1csc(Nc2ccccc2Cl)n1 | inconclusive: 44.7 µM [inhibitor, partial curve] | – |

Continued.

Structure (SMILES) | Potency | activity change, negative = inhibition
CCCCn1c(N)c(N(CCOC)C(=O)C2CCN(S(=O)(=O)c3ccc(C)c(C)c3)CC2)c(=O)[nH]c1=O | inconclusive: 2.82 µM [inhibitor, full curve, poor fit] | –
O=C(NCc1ccc(Cl)cc1)c1cccn2nccc12 | inconclusive: 56.2 µM [inhibitor, full curve] | –
Cc1coc(C)c1C(=O)CC1(O)C(=O)N(Cc2ccccc2)c2ccccc21 (stereo not drawn) | inconclusive: 35.5 µM [inhibitor, partial curve, poor fit] | –
O=C(OCc1cccc(Cl)c1)c1ccc(O)cc1 | inconclusive: 79.4 µM [inhibitor, partial curve, poor fit] | –
COc1ccccc1NC(=O)COC(=O)CN1C(=O)C(=O)c2ccccc21 | – | inactive: -9.59%
Cc1ccc(CN2C(=O)NC3(CCN(C(=O)c4ccc(C#N)cc4)CC3)C2=O)cc1 | inconclusive: 2 µM [inhibitor, full curve, poor fit] | –
Cn1c(=O)c([N+](=O)[O-])c(-n2cnc3ccccc32)c2ccccc21 | inconclusive: 100 µM [inhibitor, single point] | –
O=C1NC(=O)/C(=C/c2ccccc2OCc2ccccc2)S1 | – | inactive: -16.9%
Cc1cc(C)cc(C(=O)OCC(=O)NC(=O)NC2CCCC2)c1 | inconclusive: 100 µM [inhibitor, partial curve, poor fit] | –
C[N+](CCOCc1ccccc1)(CCOCc1ccccc1)CCOCc1ccccc1 | active: 17.8 µM | –
Cc1cc(C)nc(SCC(=O)Nc2ccc(N3CCOCC3)cc2)n1 | inconclusive: 28.2 µM [inhibitor, partial curve, poor fit] | –
CCCc1nc2sc3ccccc3c(=O)c2c(=O)n1Cc1ccco1 | inconclusive: 50.1 µM [inhibitor, partial curve, poor fit] | –
CC(C)(C)c1ccc(C(=O)NCC(=O)N2CCCC2)cc1 | – | inactive: 15.7%
CC=CC1=C(C(=O)O)N2C(=O)[C@H](NC(=O)[C@H](N)c3ccc(O)cc3)[C@@H]2SC1 | inconclusive: 1.37 µM [inhibitor, full curve] | –
C/C(=C\c1ccccc1)C(=O)N1CCN(Cc2ccc3c(c2)OCO3)CC1 | – | inactive: 0%
CCCCc1noc(CSc2cc(C(N)=O)c3ccccc3n2)n1 | – | inactive: -28.2%
Cc1nc(CCNC(=O)[C@H]2CNC[C@H](C(=O)N3CCOCC3)C2)sc1Cl | – | inactive: 28%
S=c1[nH]nc(COc2ccccc2)n1C1CCCCC1 | inconclusive: 15.8 µM [inhibitor, partial curve, poor fit] | –
O=C(CN1C(=O)COc2ccccc21)NCCc1ccc(Cl)cc1 | – | inconclusive: -32.1% [inhibitor]
CCN(CC)S(=O)(=O)c1ccc(Cl)c(C(=O)Nc2nncs2)c1 | inconclusive: 141 µM [inhibitor, partial curve, poor fit] | –
O=C(NC(=S)Nc1ccc(Cl)c(C(=O)O)c1)c1cccc(COc2ccccc2)c1 | active: 11.2 µM | –
CNC(=O)[C@H](CC1=CN=C2C=CCC=C12)NC(=O)[C@@H](CC(=O)NO)CC(C)C | inconclusive: 27.3 µM [inhibitor, partial curve, poor fit] | –
